Values of other authors in patent publication US12281362B2, “Diagnostic tools and treatments for clear cell renal cell carcinoma” (University of Cincinnati, priority 2020, dated 2025).
Like-named read-outs stand apart in the source and are kept apart here. For at least one compound, name, drawing or mass did not settle the structure.

Legend:
[1] = system: high-risk localized kidney cancer; conditions: for disease free survival (DFS): adjuvant, following nephrectomy, S-TRAC trial
localized RCC = conditions: adjuvant setting

SMILES	disease free survival (DFS) [1]	disease free survival (DFS) ([1]; listed as sunitinib)	overall survival (OS) benefit ([1]; patients at high-risk of relapse post-nephrectomy)	survival (localized RCC)
CCN(CC)CCNC(=O)c1c(C)[nH]c(/C=C2\C(=O)Nc3ccc(F)cc32)c1C [Sunitinib]	improvement in disease free survival	improvement in disease-free survival	did not translate into an overall survival (OS) benefit	–
CNC(=O)c1ccccc1Sc1ccc2c(/C=C/c3ccccn3)n[nH]c2c1 [axitinib]	–	–	–	did not improve survival
Cc1ccc(Nc2nccc(N(C)c3ccc4c(C)n(C)nc4c3)n2)cc1S(N)(=O)=O [pazopanib]	–	–	–	did not improve survival
